This note sets out measurements from PMC7402621.

Read-outs that look alike come from different tables or passages of the source. Results are given in words; binding and its absence hold for the method and conditions named. In cells and extracts the contact can be indirect. A yes stands for co-enrichment or nearness to the bait. Other partners may have been found.

The target in assay [1] is N-terminally 3×FLAG-tagged Nsp1 of SARS-CoV-2 (SARS-CoV-2) (UniProt P0DTD1). Kind of assay: affinity purification with mass spectrometry + cryo-EM structure.
Assay [2] shares this target. The assay is described as above. The source holds these as a separate data set.

Take “cell growth–regulating nucleolar protein Ly 1 antibody reactive (LYAR) (from UniProt Q9NX58 1-379)”: the binding result in assay [1] is “binds”.

B1: cytosolic ribosome biogenesis factor TSR1 (protein, UniProt Q2NL82 1-804)
chain: MAAHRPGPLKQQNKAHKGGRHRGRGSAQRDGKGRLALKTLSKKVRKELSRVDQRHRASQLRKQKKEAVLAEKRQLGGKDGPPHQVLVVPLHSRISLPEAMQLLQDRDTGTVHLNELGNTQNFMLLCPRLKHRWFFTSARPGDLHVVLDMAKVADTILFLLDPLEGWDSTGDYCLSCLFAQGLPTYTLAVQGISGLPLKKQIDTRKKLSKAVEKRFPHDKLLLLDTQQEAGMLLRQLANQKQQHLAFRDRRAYLFAHAVDFVPSEENNLVGTLKISGYVRGQTLNVNRLLHIVGYGDFQMKQIDAPGDPFPLNPRGIKPQKDPDMAMEICATDAVDDMEEGLKVLMKADPGRQESLQAEVIPDPMEGEQTWPTEEELSEAKDFLKESSKVVKKVPKGTSSYQAEWILDGGSQSGGEGDEYEYDDMEHEDFMEEESQDESSEEEEEYETMTIGESVHDDLYDKKVDEEAEAKMLEKYKQERLEEMFPDEVDTPRDVAARIRFQKYRGLKSFRTSPWDPKENLPQDYARIFQFQNFTNTRKSIFKEVEEKEVEGAEVGWYVTLHVSEVPVSVVECFRQGTPLIAFSLLPHEQKMSVLNMVVRRDPGNTEPVKAKEELIFHCGFRRFRASPLFSQHTAADKHKLQRFLTADMALVATVYAPITFPPASVLLFKQKSNGMHSLIATGHLMSVDPDRMVIKRVVLSGHPFKIFTKMAVVRYMFFNREDVLWFKPVELRTKWGRRGHIKEPLGTHGHMKCSFDGKLKSQDTVLMNLYKRVFPKWTYDPYVPEPVPWLKSEISSTVPQGGME
Regarding B1, the binding entry in assay [2] was “binds”.

B2: coiled-coil domain containing short open reading frame 124 (CCDC124) (protein, UniProt Q96CT7 1-223)
chain: MPKKFQGENTKSAAARARRAEAKAAADAKKQKELEDAYWKDDDKHVMRKEQRKEEKEKRRLDQLERKKETQRLLEEEDSKLKGGKAPRVATSSKVTRAQIEDTLRRDHQLREAPDTAEKAKSHLEVPLEENVNRRVLEEGSVEARTIEDAIAVLSVAEEAADRHPERRMRAAFTAFEEAQLPRLKQENPNMRLSQLKQLLKKEWLRSPDNPMNQRAVPFNAPK
For the molecule B2, the binding result in assay [2] was “binds”.
